Reference: patent US5326751A (Arizona Board of Regents on behalf of the University of …, priority 1992, dated 1994)

Assay: general procedure: Boc solid-phase peptide synthesis; chloromethylated polystyrene (0.6-0.8 mmoles Cl/g resin) cross-linked with 1% divinylbenzene (Peptides International); B
Details: oxidative folding step; run 1

For “PEPTIDE1{Y.[D-Pen].A.F.[D-Pen]}$PEPTIDE1,PEPTIDE1,2:R3-5:R3$$$V2.0”, the “final purity (method not given)” value was >99% and >85%.

Where “and” joins values, the source holds several entries; their conditions need not be identical. Equal entries are not always repeated. Strings that start with PEPTIDE1 are HELM notation: dots part the residues, brackets hold end groups and non-standard residues.
